Non-standard residues stand in square brackets, D forms with d. *: point of attachment. dArg(NO2) = N=C(NCCC[C@@H](N)C(=O)O)N[N+](=O)[O-]; Dnp = O=[N+]([O-])c1ccc(*)c([N+](=O)[O-])c1; Boc = CC(C)(C)OC(=O)*; OBn = c1ccc(CO*)cc1
Assay: general procedure: solution-phase peptide synthesis; WSCI / 1-hydroxybenzotriazol
Conditions: coupling step

Row | Substance | step yield [%]
1 | Boc-IAGQ[dArg(NO2)]-OBn | 86
2 | Boc-IAG[dArg(NO2)]-OBn | 79
3 | Boc-LAGQ[dArg(NO2)]-OBn | 70
4 | Boc-PQGIAGQ[dArg(NO2)]-OBn | 69
5 | Boc-QGIAGQ[dArg(NO2)]-OBn | 71
6 | Dnp-AGIAGQ[dArg(NO2)]-OBn | 60
7 | Dnp-PAGIAGQ[dArg(NO2)]-OBn | 83
8 | Dnp-PAGLAGQ[dArg(NO2)]-OBn | 72
9 | Dnp-PLGIAGQ[dArg(NO2)]-OBn | 93
10 | Dnp-PPGIAGQ[dArg(NO2)]-OBn | 73
11 | Dnp-PQGIAGQ[dArg(NO2)]-OBn | 89
12 | Dnp-PQGIAG[dArg(NO2)]-OBn | 79
13 | Dnp-PQGLAGQ[dArg(NO2)]-OBn | 89
14 | PAB-Pro-Gln-Gly-Ile-Ala-Gly-Gln-D-Arg(NO2)-OBzl | 75

Same assay, conditions: late stage modification step

Row | Substance | step yield [%]
15 | Dnp-PPGIAGQ[dR]-OH | 85
16 | Dnp-QGIAGQ[dArg(NO2)]-OBn | 73
17 | PAB-Pro-Gln-Gly-Ile-Ala-Gly-Gln-D-Arg-OH | 80
